Experimental data published in US20180298095A1.
No constants are given. Whether binding was seen depends on the method and setting. Some results given as binding are weak or reduced against the parent protein; the word gives no strength.

Amino acid sequences for entries named in this document (tags omitted). A change or cut given only in a name is not applied to a line headed by its entry.
UniProt P13688: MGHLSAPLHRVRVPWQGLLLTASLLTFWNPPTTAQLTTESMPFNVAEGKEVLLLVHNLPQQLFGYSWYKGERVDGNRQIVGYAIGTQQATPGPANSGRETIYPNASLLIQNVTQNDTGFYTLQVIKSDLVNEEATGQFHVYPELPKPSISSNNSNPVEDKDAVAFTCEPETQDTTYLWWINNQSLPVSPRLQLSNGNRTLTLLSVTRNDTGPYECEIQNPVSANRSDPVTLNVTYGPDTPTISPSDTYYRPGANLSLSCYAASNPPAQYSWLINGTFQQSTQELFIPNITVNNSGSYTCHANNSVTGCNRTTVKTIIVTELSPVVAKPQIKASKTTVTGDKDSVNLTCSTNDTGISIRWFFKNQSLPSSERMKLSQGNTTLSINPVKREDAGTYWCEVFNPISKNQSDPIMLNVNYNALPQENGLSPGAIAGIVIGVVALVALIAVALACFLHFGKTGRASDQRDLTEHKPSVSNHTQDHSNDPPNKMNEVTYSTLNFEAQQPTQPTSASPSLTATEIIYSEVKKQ

Target: T1, human TIM-4 (human) (UniProt Q96H15)
T1 sequence: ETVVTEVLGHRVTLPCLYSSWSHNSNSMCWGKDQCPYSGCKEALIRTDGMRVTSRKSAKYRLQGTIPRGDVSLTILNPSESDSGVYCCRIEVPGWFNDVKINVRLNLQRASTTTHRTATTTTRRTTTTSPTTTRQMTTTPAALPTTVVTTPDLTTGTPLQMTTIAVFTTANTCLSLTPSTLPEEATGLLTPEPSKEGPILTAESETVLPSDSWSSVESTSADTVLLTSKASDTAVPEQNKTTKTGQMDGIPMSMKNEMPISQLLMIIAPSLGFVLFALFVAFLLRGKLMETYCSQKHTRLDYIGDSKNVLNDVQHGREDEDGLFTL
Test: method not described ('as demonstrated herein')

binding: binds
Substance: human CEACAM1 (from UniProt P13688 35-526) (receptor)
